Consider two compounds from patent publication US11981953B2, “Method to screen compounds for antifungal activity and pharmaceutical compositions and methods to treat fungal diseases by inhibiting spore germination” (WISCONSIN ALUMNI RESEARCH FOUNDATION, priority 2018, dated 2024).

Molecules are shown by their SMILES.

Format in all cases: cell-based
Experiment [1] has as its system Cryptococcus neoformans spores (JEC20 x JEC21). As to the kind of experiment: Quantitative germination assay (microfluidic devices, cell size and shape). The settings on record: 25 μg/mL. As to the method: All germination assays are based on Barkal et al., 2016. Briefly, microfluidic devices were loaded with 1×10^5 spores, and at 0 hours, SD media with drug of interest, were added to the sample. Spores were allowed to germinated at 30° C. in a humidified chamber and cells were monitored every two (2) hours for 16 hours. Each assay was performed in two (2) individual wells with three (3) field of views acquired from each well. All images were analyzed as previously described based on cell shape and size. Population ratio of spores, intermediate, and yeast cells were determined. Error bars in plots are based on variation between all fields of view acquired. All experiments were able to be reproduced independently. After the 16-hour experiment, samples were plated on YPD and allowed to grow at 30° C. to determine if drugs were completely germicidal or not based on lack of growth. If assays were unable to be performed in microfluidic devices, the […] spores were incubated in identical conditions outside of PDMS devices and only loaded into devices for image acquisition.
Once yeast replication inhibition was confirmed, the ability of the drugs to inhibit spore germination was characterized using a quantified microfluidics-based germination assay where the changes in size and morphology are monitored as small ovoid spores germinate into large circular yeast.

The test system of experiment [2] is Cryptococcus neoformans (H99). As to the kind of experiment: MIC/MFC experiments (EUCAST based), H99. The settings on record: 48 h. As to the method: (§1) All minimum inhibitory concentration (MIC) experiments were based on EUCAST methodology. […] After 6-hour incubation, yeast cells were washed in 1×PBS and quantified using a hemocytometer. […] Cryptococcus neoformans cells were incubated for 2 days at 30° C. while Candida albicans strains were incubated for 2 days at 35° C. OD600 readings were used to assess the MIC values for each drug. To determine minimum fungicidal concentrations (MFC) values, 3 μL per well were plated on YPD and allowed to grow for 2 days.

Experiment [3] concerns Aspergillus Fumigatus (AF293). As to the kind of experiment: Aspergillus fumigatus MIC on conidia. The settings on record: for MIC: Aspergillus fumigatus. As to the method: Conidia at a final concentration of 2×10^4 cells were incubated in RPMI, 0.33 M MOPS, and 2% glucose at pH 7 at varying concentrations of inhibitors, with a final volume of 200 μL.
Experiment [4] deals with Cryptococcus neoformans (JEC21). Put plainly: MIC/MFC experiments (EUCAST based), JEC21. The settings on record: 48 h. As to the method: as §1
Experiment [5] concerns Candida albicans (SC5314). As to the kind of experiment: MIC/MFC experiments (EUCAST based), Candida albicans. The settings on record: SC5314, 48 h. The method, then:
as §1

What is called MIC is the smallest concentration in the dilution series that meets the test's criterion for growth inhibition. The low end stands for greater potency, the high end for weaker potency. With `CC(C)(C)CC(C)(C)c1ccc(OCCOCC[N+](C)(C)Cc2ccccc2)cc1` [Benzethonium chloride], in experiment [1] (16 hours), the “Inhibition of spore germination” value is listed as “inhibit spore germination completely”. Also, the “Germicidal” value in experiment [1] (plated on YPD after the 16-hour experiment) is “fully germicidal”. For the same compound, the MIC in experiment [2] is 3.13 µg/mL; in experiment [3], 12.5 µg/mL; in experiment [4], 3.13 µg/mL; in experiment [5] it was 6.25 µg/mL. Further, the results for the MFC in experiment [2] (Cryptococcus neoformans), in experiment [4] (Cryptococcus neoformans) and in experiment [5] were 3.13 µg/mL, 3.13 µg/mL and 12.5 µg/mL, respectively. Also, the “Ability to inhibit Aspergillus fumigatus” value in experiment [3] (testing performed on conidia) is recorded as “able to inhibit A. fumigatus”.
In the case of `CCCCCCCCCCCCCCCC[n+]1ccccc1` [Cetylpyridinium chloride], the MIC in experiment [2] is less than 0.78 µg/mL; in experiment [3], 1.56 µg/mL; in experiment [4], less than 0.78 µg/mL; in experiment [5] it was 1.56 µg/mL.
